Data reported in patent US5610003A, “Two-equivalent magenta photographic couplers with activity-modifying ballasting groups” (Eastman Kodak Company, priority 1995, dated 1997).

assay: Single-layer photographic coating with fast magenta emulsion, conventional color reversal process; density normalized to a 4-equivalent coupler; settings: 0.9 mmol/m^2 coupler in N,N-di-n-butyl lauramide (1:0.5), 675 mg Ag/m^2, four minute first developer; normalized to 4-equivalent coupler, half molar quantities
Description: To evaluate the performance of couplers 1 to 17, they were coated in a single layer format with a gel overcoat using a fast magenta emulsion. The test coupler was coated at a level of 0.9 mmol/m^2 in N,N-di-n-butyl lauramide coupler solvent (1:0.5), 675 mg Ag/m^2, 3 g/m^2 gel, 1.75 g tetraazaindene/Ag mole. The coatings were processed through a conventional color reversal process with a four minute first developer step and the densities were recorded.
Measured densities were normalized relative to 1-(2,4,6-trichlorophenyl)-3-{3-[2-(2,4-di-tert-pentylphenoxy)ethanamido]benzamido}-5-oxo-2-pyrazoline, a 4-equivalent coupler typically used in current reversal film systems. The couplers of examples 1-17 were coated in half molar quantities with respect to this standard.

SMILES	Normalized Maximum Density
CCCCCCC(Oc1ccc(C(C)(C)CC(C)(C)C)cc1C(C)(C)CC(C)(C)C)C(=O)NC1=NN(c2c(Cl)cc(Cl)cc2Cl)C(=O)C1n1cccn1 (centres unmarked) [Example 1]	0.60
CCCCCCCCC(Oc1ccc(C(C)(C)CC(C)(C)C)cc1C(C)(C)CC(C)(C)C)C(=O)NC1=NN(c2c(Cl)cc(Cl)cc2Cl)C(=O)C1n1cccn1 (centres unmarked) [Example 2]	0.54
CCCCCCCCCCCCC(Oc1ccc(C(C)(C)CC(C)(C)C)cc1C(C)(C)CC(C)(C)C)C(=O)NC1=NN(c2c(Cl)cc(Cl)cc2Cl)C(=O)C1n1cccn1 (centres unmarked) [Example 3]	0.48
CCCCC(Oc1ccc(C(C)(C)CC)cc1C(C)(C)CC)C(=O)NC1=NN(c2c(Cl)cc(Cl)cc2Cl)C(=O)C1n1cccn1 (centres unmarked) [Example 4]	1.02
CCCCCCC(Oc1ccc(C(C)(C)CC)cc1C(C)(C)CC)C(=O)NC1=NN(c2c(Cl)cc(Cl)cc2Cl)C(=O)C1n1cccn1 (centres unmarked) [Example 5]	0.78
CCCCCCCCC(Oc1ccc(C(C)(C)CC)cc1C(C)(C)CC)C(=O)NC1=NN(c2c(Cl)cc(Cl)cc2Cl)C(=O)C1n1cccn1 (centres unmarked) [Example 6]	0.71
CCCCCCCCCCCCC(Oc1ccc(C(C)(C)CC)cc1C(C)(C)CC)C(=O)NC1=NN(c2c(Cl)cc(Cl)cc2Cl)C(=O)C1n1cccn1 (centres unmarked) [Example 7]	0.70
CCCCCCCCCCCCCCCCC(Oc1ccc(C(C)(C)CC)cc1C(C)(C)CC)C(=O)NC1=NN(c2c(Cl)cc(Cl)cc2Cl)C(=O)C1n1cccn1 (centres unmarked) [Example 8]	0.70
CCCCCCC(Oc1cc2c(cc1C(C)(C)CC(C)(C)C)OC(C)(C)CC2(C)C)C(=O)NC1=NN(c2c(Cl)cc(Cl)cc2Cl)C(=O)C1n1cccn1 (centres unmarked) [Example 9]	0.62
CCCCCCCCCCCCC(Oc1ccc(CCCCC)cc1CCCCC)C(=O)NC1=NN(c2c(Cl)cc(Cl)cc2Cl)C(=O)C1n1cccn1 (centres unmarked) [Example 10]	0.97
CCCCCCCCCCCCC(Oc1cc(C(C)(C)C)cc(C(C)(C)C)c1)C(=O)NC1=NN(c2c(Cl)cc(Cl)cc2Cl)C(=O)C1n1cccn1 (centres unmarked) [Example 11]	0.90
CCC(C)(C)c1ccc(Oc2ccc([N+](=O)[O-])cc2C(=O)NC2=NN(c3c(Cl)cc(Cl)cc3Cl)C(=O)C2n2cccn2)c(C(C)(C)CC)c1 (centres unmarked) [Example 12]	0.32
CCCCCCCCCCCC(=O)Nc1ccc(Oc2ccc(C(C)(C)CC)cc2C(C)(C)CC)c(C(=O)NC2=NN(c3c(Cl)cc(Cl)cc3Cl)C(=O)C2n2cccn2)c1 (centres unmarked) [Example 13]	0.34
CCCCCCCCCCC(Oc1ccc(S(=O)(=O)c2ccc(OCc3ccccc3)cc2)cc1)C(=O)Nc1ccc(Oc2ccc(C(C)(C)CC)cc2C(C)(C)CC)c(C(=O)NC2=NN(c3c(Cl)cc(Cl)cc3Cl)C(=O)C2n2cccn2)c1 (centres unmarked) [Example 14]	0.20
CCC(C)(C)c1ccc(OCC(=O)Nc2ccc(Oc3ccc(C(C)(C)CC)cc3C(C)(C)CC)c(C(=O)NC3=NN(c4c(Cl)cc(Cl)cc4Cl)C(=O)C3n3cccn3)c2)c(C(C)(C)CC)c1 (centres unmarked) [Example 15]	0.22
CCCCCCCCCCCCC(Oc1ccc(C)cc1C(C)(C)CC(C)(C)C)C(=O)NC1=NN(c2c(Cl)cc(Cl)cc2Cl)C(=O)C1n1cccn1 (centres unmarked) [Example 16]	0.82
CCCCCCCCCCCCC(Oc1ccc(C(C)(C)CC(C)(C)C)cc1)C(=O)NC1=NN(c2c(Cl)cc(Cl)cc2Cl)C(=O)C1n1cccn1 (centres unmarked) [Example 17]	0.88
